## Screening data, single-dose tests

The filed quantity is “Percent Effect” (%).
The record does not define 0% and 100%; most values in the screen are far below 50% and negative numbers occur (in some assays of this library far below -100).
The compounds are a random part of those screened.
Two or more numbers in one place are separate tests of the same structure; such repeats can differ widely.

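Cell assay of Leishmania donovani living inside macrophages; the read-out is not stated. Compounds at 30 µM. The record gives no direction; compounds that gave an IC50 in retests scored well above the rest, so higher reads as stronger inhibition. Of about 69,000 compounds tested this way, about 1,000 (1.5%) reached 50% or more in at least one test.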

* CS(=O)(=O)NCC(=O)N1CCCC1c1noc(C2CC2)n1 (stereo not drawn) : -2.447%
* COc1ccc(NC(=O)c2cccc(CN3CCCC3C)c2)cc1OC (stereo not drawn) : -29.26%
* Cc1nn(C)c(C)c1CC(=O)N1CCc2nnc(N(C)C)cc2C1 : 20.47%
* CCCN(Cc1cccnc1)C1CC(C)(C)NC(C)(C)C1.O=C(O)CC(O)(CC(=O)O)C(=O)O : 9.66% & -2.894%
* Cc1ccsc1C(=O)N1CC(C(=O)NC(C)C)C2(CCOCC2)C1 (stereo not drawn) : -18.97% & 5.747%
* COc1ccc(-n2ccc(C(=O)N3CCC(C(N)=O)C3)n2)cc1 (stereo not drawn) : -15.71%
* Cl.NC(=O)COc1ccc(CNCc2cc(F)cc(F)c2)cc1 : -6.038%
* NC(=O)c1cnc(NC(=O)CCc2ccco2)c(Cl)c1 : 14.31%
* [H][C@@]12CCCN1C[C@@H](Cc1ccccc1)N(Cc1cnn(C=C)c1C)C2 : -10.47% & -3.669%
* Cc1nc(C)n(C2CCCN(C(=O)Cc3n[nH]c4ccccc34)C2)n1 (stereo not drawn) : 34.74%
* Cc1nnc(NC(=O)CN2CCCC2c2noc(C3CC3)n2)s1 (stereo not drawn) : -2.11%
* O=C(O)C(F)(F)F.O=C(O)C(F)(F)F.c1cncc(C2COC3(CCN(CC4CC4)CC3)C2)c1 (stereo not drawn) : 32.44%
* O=C(O)C(F)(F)F.O=C(O)C(F)(F)F.[H][C@@]12C[C@H](C(=O)Nc3cccnc3)CN(Cc3ccc(F)cc3)[C@]1([H])CCO2 : 20.82%
* CCn1c(=O)nc2n1C(=O)N(c1cccc(Cl)c1)C2 : 9.875%
* CC(=O)N[C@H]1CCN(C(=O)c2cc(Cn3cnc4ccccc43)[nH]n2)C1 : 8.874%
* CN(C)C(=O)c1n[nH]c2c1CN(CC1CCC1)C2.O=C(O)C(F)(F)F.O=C(O)C(F)(F)F : -0.6581%
* C[C@H]1CN(C(=O)c2cscn2)C[C@@]12CCN(c1ccsc1)C2=O : 0.2217%
* CC(C)CN1Cc2c(C(=O)N(C)C)ncn2-c2ccccc2S1(=O)=O : 4.711%
* CC(NC(=O)NCc1cccnc1N1CCCCC1)c1nccs1 (stereo not drawn) : 22.89%
* O=C(NCCn1ccnc1)NCC(c1ccco1)N1CCCCC1 (stereo not drawn) : -11.8%
* Cc1cc(C)n(CC2CCCCN2C(=O)c2ccsc2)n1 (stereo not drawn) : 11.57%
* O=C1CC(NCc2ccccn2)CN1CCc1ccc(F)cc1 (stereo not drawn) : 43.3%
* O=C(CCNc1ncccn1)N1CCC(Nc2cccnn2)CC1 : 28.99%
* CN(CC(F)F)C(=O)c1cn(-c2ccc(Br)cc2)cn1 : -17.62%
* CC(CO)N(C)C(=O)c1cn(-c2ccc(Br)cc2)cn1 (stereo not drawn) : 15.61%
* CC(NC(=O)CCn1cccn1)c1ccc(-n2ccnn2)cc1 (stereo not drawn) : -4.378%
* O=C(O)C(F)(F)F.O=C(O)C(F)(F)F.[H][C@@]12CO[C@@H](CN(C)Cc3cccnc3)[C@]1([H])CCN(C(=O)C1CC1)C2 : 22.74%
* c1cnc(N2CCCC(c3cc4cccnc4[nH]3)C2)nc1 (stereo not drawn) : 37.81%
* Cc1nc(CN2CCC(CNC(=O)Nc3ccccc3)CC2)oc1C : -10.55%
* Cc1nc(N2CCOCC2)nc2c1COCC21CCN(CC(C)C)C1 (stereo not drawn) : 15.23%
* Cc1cc(CC(=O)NCC(O)COc2ccc(F)c(F)c2)no1 (stereo not drawn) : -6.369%
* COc1ccc(NC(C)c2ccc(C#N)cc2)cc1N1CCCC1=O (stereo not drawn) : -1.854%
* Cc1ccc(NC2CCN(C(=O)COC3CCCCC3)CC2)nn1 : -1.421%
* c1cc2c(cc1CN1CCC(Cc3noc(C4CC4)n3)CC1)OCCO2 : 37.97%

The first 3 entries again:

- CS(=O)(=O)NCC(=O)N1CCCC1c1noc(C2CC2)n1 (stereo not drawn) : -2.447%
- COc1ccc(NC(=O)c2cccc(CN3CCCC3C)c2)cc1OC (stereo not drawn) : -29.26%
- Cc1nn(C)c(C)c1CC(=O)N1CCc2nnc(N(C)C)cc2C1 : 20.47%

Measurements from “University of Dundee, Small-Polar-MMV Screening Library” (2021), ChEMBL document CHEMBL3988442.